Tested on: C57BL/6 mice
Assay: Novelty suppressed feeding (NSF)
Assay type: in vivo, mouse
Details: female C57BL/6 mice; one week before CFC stress; (R,S)-ketamine 10 mg/kg, combined 10 + 1.5 mg/kg
From the text: All food was removed from the home cage.

Structure (SMILES): CNC1(c2ccccc2Cl)CCCCC1=O (racemic) [(R,S)-ketamine, (RS)-2-(2-chlorophenyl)-2-(methylamino)cyclohexanone]
- Body weight loss, NSF: did not alter
- Latency to feed in the home cage, NSF: did not alter

Source: US20230121608A1, “Compositions and Methods for the Prevention of Stress-Induced Fear, Depressive-Like and Anxiety- Like Behavior” (The Trustees of Columbia University in the City of New York, priority 2020, published 2023)
